Measurements: PubChem BioAssay AID2685 (National Center for Advancing Translational Sciences (NCATS), 2010)
The whole screen tested about 320,000 compounds, of which about 2,100 (0.66%) were called active. Inconclusive means that the source gave no clear call. Such entries were picked first, then a sample of the others. Calls come from the whole dose curve; as a rule, active = well fitted inhibition curve with a large enough effect in the signal ratio, with a control signal flat (not every such curve was filed as active); inconclusive = small, poorly fitted or top-dose-only effect, or effect the other way, or a change in a side signal; inactive = flat fitted curve, though single readings scatter; the % refers to the signal ratio. Where the call is inconclusive, the potency comes from a doubtful curve fit.

Test: qHTS Assay for Lipid Storage Modulators in Drosophila S3 Cells
Details: BODIPY lipid droplet fluorescence, 18-24 h, cells fed with added oleic acid; lipid storage change, negative = inhibition: at 46.1 µM (top of the series) unless noted
Method in brief: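 Drosophila S3 cells got compounds at several concentrations plus oleic acid (400 uM solution). Laser-scanning cytometry with 488 nm excitation read lipid droplets at 500-530 nm and cells at 575-640 nm. Percent activity was relative to 20 uM Triacsin C.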
% is set by controls: 0 for no effect and ±100 for the full control effect; potency is the fitted concentration of half-maximal effect.

| Structure (SMILES) | Potency | lipid storage change, negative = inhibition |
| --- | --- | --- |
| CC(C)c1ccc(NC(=O)[C@H](Cc2c[nH]c3ccccc23)NC(=O)[C@@H]2Cc3ccccc3CN2)cc1 | inconclusive: 16.4 µM [falling, single point] | – |
| c1cncc(Nc2c3ccccc3nc3ccccc23)c1 | – | inconclusive: -30.5% |
| COc1ccc(NC(=O)C2CC(=O)N(c3ccccc3Cl)C2)c(OC)c1 (centres undefined) | – | inconclusive: 8.41% |
| Cc1ccc(CSc2nc3ccncc3n2CC(=O)Nc2cc(C)cc(C)c2)cc1 | – | inconclusive: 4.18% |
| CCOc1ccc(OCc2ccc(C(=O)N3N=C(C(F)F)CC3(O)C(F)F)o2)cc1 (centres undefined) | – | inconclusive: 99.4% |
| CCOC(=O)N1CCC(NC(=O)CN2C(=O)CSc3nc(C)cc(C)c32)CC1 | – | inconclusive: -16.2% |
| CCOc1cc(N2CCOCC2)c(OCC)cc1NC(=O)CSc1ncn[nH]1 | – | inconclusive: 12.4% |
| Cc1ccc(-n2nc(-c3ccc(OC(F)(F)F)cc3)cc2N)cc1C | – | inconclusive: -32.9% |
| CCOC(=O)c1cn(Cc2cccc(Cl)c2)nn1 | – | inconclusive: -3.15% |
| O=C(NCCCl)Nc1cc([N+](=O)[O-])ccc1Cl | – | inconclusive: 109% |
| COCC(=O)N1CCC(Oc2ccc(C(=O)N3C[C@H]4CC[C@H]3C4)cc2)CC1 | – | inconclusive: 289% |
| CCCNC(=S)Nc1ccc(Cl)cc1C | – | inactive |
| O=C(C[n+]1cc(-c2ccc(F)cc2)n2c1CCC2)OCc1ccccc1 | – | inconclusive: 1.11% |
| Cc1cc(C)c(S(=O)(=O)ON2C(=O)c3ccccc3C2=O)cc1C | inconclusive: 16.4 µM [falling, partial curve] | – |
| Cc1c(/C=C2\SC(=Nc3cccc(C(=O)O)c3)NC2=O)c2ccccc2n1C | inconclusive: 0.0041 µM [activator, full curve, poor fit] | – |
| COc1ccc(CN(C(=O)c2cnccn2)C(C(=O)Nc2ccc(F)cc2)c2ccccc2)cc1 (centres undefined) | – | inconclusive: -13.6% |
| O=C(c1ccco1)N1CCN(S(=O)(=O)c2cccc([N+](=O)[O-])c2)CC1 | – | inactive |
| CCN(CC)C(=O)CN1C(=O)C2(OCC(C)(c3ccccc3)CO2)c2ccccc21 (centres undefined) | – | inconclusive: 78.5% |
| Cc1cc(=O)n2nc(N3CCCC(C(=O)N4CCOCC4)C3)sc2n1 (centres undefined) | – | inconclusive: -140% |
| COc1ccc([C@H]2CC(=O)C=C(c3ccc(OC)c(F)c3)C2)cc1 | active: 0.731 µM | – |
| FC(F)(F)c1ccccc1CNCc1ccncc1 | – | inconclusive: -25.1% |
| Cc1ccc(C)c(NC(=O)COC(=O)CSc2ccccc2)c1 | – | inconclusive: -12.3% |
| COc1ccc2c(c1)c(CC(=O)Nc1cccc(S(N)(=O)=O)c1)c(C)n2C(=O)c1ccc(Cl)cc1 | – | inactive |
| CN(C)CCCCCNCCCNC(=O)/C=N\O | inconclusive: 0.231 µM [falling, full curve] | – |
| Nc1nc(-c2ccc3c(c2)CCCC3)c(CC(=O)O)s1 | – | inconclusive: -48.9% |
| CC(=O)Nc1ccc(C(=O)N/N=C/c2cccnc2)cc1 | – | inactive |
| COc1ccc(Nc2nc(C)c3ccccc3n2)cc1 | – | inconclusive: 4.78% |

| Structure (SMILES) | Potency | lipid storage change, negative = inhibition |
| --- | --- | --- |
| O=C(O)COCC(=O)N1CCN(C(c2ccccc2)c2ccccc2)CC1 | – | inconclusive: -44.1% |
| O=C(CCCOc1ccccc1)N1CCN(c2ccccn2)CC1 | – | inconclusive: 104% |
| CCN(CC)S(=O)(=O)c1ccc(OC)c(NC(=O)CSc2cc(C)ccc2C)c1 | inconclusive: 2.91 µM [activator, partial curve] | – |
| CCOC(=O)c1ccccc1NC(=O)c1cn(-c2ccc(OC)cc2)c(=O)c2ccccc12 | – | inconclusive: 6.86% |
| NS(=O)(=O)c1ccc(CNC(=O)CSc2nc3ccc(Cl)cc3[nH]2)cc1 | – | inactive |
| Cc1c(N=Cc2nc3ccccc3[nH]2)c(=O)n(-c2ccccc2)n1C | – | inconclusive: 36.4% |
| O=C(NCc1ccccc1Cl)C(=O)c1c[nH]c2ccccc12 | – | inconclusive: 15.5% |
| O=C(COc1ccc(F)cc1)NNC(=O)c1cc2ccccc2oc1=O | – | inconclusive: 10.2% |
| O=C(CNc1ccc(F)cc1)N/N=C1\CCc2ccccc21 | – | inconclusive: 65.3% |
| O=C(COC(=O)c1cn(-c2ccccc2)nc1-c1ccccc1)c1ccc([N+](=O)[O-])cc1 | inconclusive: 2.59 µM [activator, partial curve] | – |
| COc1ccc(NC(=O)CCCCCN2C(=O)c3cccc([N+](=O)[O-])c3C2=O)c(OC)c1 | – | inconclusive: 40.7% |
| COc1cccc(-c2nnc(SCC(=O)Nc3cc(C)ccc3OC)n2N)c1 | – | inconclusive: 6.99% |
| Cc1c(Cl)cccc1NC(=S)N(Cc1cccs1)C1CCCC1 | – | inconclusive: 27.6% |
| Cn1c(=O)c2c(SCC(=O)Nc3ccccc3F)nc(-c3ccccc3F)nc2n(C)c1=O | – | inconclusive: -31.1% |
| Nc1nnnn1CC(=O)OCc1cccc(Br)c1 | active: 2.06 µM | – |
| COc1ccc(CCNC(=O)c2noc3c2CCCC3)cc1OC | inconclusive: 29.1 µM [activator, single point] | – |
| COc1ccc(S(=O)(=O)NNC(=O)Cc2csc(C)n2)cc1[N+](=O)[O-] | – | inconclusive: 13.6% |
| O=C(NC1CCCCC1)C(c1ccc(F)cc1)N(Cc1ccccc1)C(=O)CN1C(=O)c2ccccc2S1(=O)=O (centres undefined) | – | inconclusive: -0.0268% |
| CCOC(=O)c1ccc(Oc2nc(N(C)C)nc(N3CCOCC3)n2)cc1 | – | inconclusive: 16.4% [at 9.22 µM] |
| COc1ccc(N2C(=O)c3ccccc3NC23CCCC3)cc1 | – | inconclusive: -7.23% |
| C=C[C@@H]1c2ccccc2N(S(=O)(=O)c2ccc(C)cc2)[C@H](c2ccc(C(F)(F)F)cc2)C1(C#N)C#N | – | inconclusive: 17.8% |
| CC(C(=O)Nc1ccc(C#N)cc1)N1CCN(C(=O)C2CC2)CC1 (centres undefined) | – | inconclusive: -24.9% |
| C#CC(CC)(CC)NC(=O)c1cc(S(=O)(=O)N2CCCCC2)ccc1N1CCOCC1 | inconclusive: 0.116 µM [activator, full curve, poor fit] | – |
| Cc1nnc(N2C(=O)C(=O)/C(=C(/O)c3ccc4c(c3)OCCO4)C2c2ccc([N+](=O)[O-])cc2)s1 (centres undefined) | – | inconclusive: 35.6% |
| Cc1ccc(OCC(=O)Nc2ccc(NC(=O)c3ccco3)cc2)c(C)c1 | – | inconclusive: -7.22% |
| O=C1C=C(c2ccccc2)C(O)(c2ccccc2)C1 (centres undefined) | – | inconclusive: -8.97% |
| Cc1noc(C)c1-c1nnc(-c2ccc(OC(F)(F)F)cc2)o1 | – | inconclusive: 4.24% |

| Structure (SMILES) | Potency | lipid storage change, negative = inhibition |
| --- | --- | --- |
| CCCCCNCc1ccc(Cl)cc1 | inconclusive: 1.84 µM [falling, partial curve, poor fit] | – |
| c1ccc(CNc2ccc(CNc3ncn[nH]3)cc2)cc1 | – | inactive |
| Cc1ccc(S(=O)(=O)N2CCCCC2)cc1NC(=O)c1ccc(Cl)nc1 | – | inconclusive: 21% |
| COc1cccc(C(=O)Nc2ccncc2)c1 | – | inconclusive: 34.5% |
| CCOC(=O)c1cc2sccc2n1CC(=O)OC(C)C | – | inconclusive: 18.3% |
| CCOc1ccc(Cn2nnc(C(=O)Nc3cc(OC)cc(OC)c3)c2N)cc1 | inconclusive: 4.11 µM [activator, single point] | – |
| Cc1[nH]n(-c2ccccc2)c(=O)c1N=Nc1ccc(Cl)cc1 | active: 9.2 µM | – |
| CC(CNC(=O)C(C)(C)C)NC(=O)C(C)(C)C (centres undefined) | – | inconclusive: -13.3% |
| C=CCOc1ccc(CN(C)C(=O)C2CCCO2)cc1 (centres undefined) | – | inconclusive: 70.2% |
| COc1cc2[nH]c(=S)n(Cc3ccco3)c(=O)c2cc1OC | inconclusive: 0.0651 µM [activator, full curve, poor fit] | – |
| CCCCC(C)(O)C/C=C/[C@H]1[C@H](O)CC(=O)[C@@H]1CCCCCCC(=O)OC (some centres undefined) | active: 23.1 µM | – |
| O=C(CN1C(=O)C2CC=CCC2C1=O)Nc1nc2ccccc2s1 (centres undefined) | – | inconclusive: 3.86% |
| O=[N+]([O-])c1ccc(OCc2cnc(Cl)s2)c([N+](=O)[O-])c1 | inconclusive: 0.461 µM [falling, single point] | – |
| Cc1ccccc1N1C(=O)CC(c2c[nH]c3ccccc23)C1=O (centres undefined) | – | inconclusive: -22.4% |
| O=C(O)CCC(CNS(=O)(=O)c1ccccc1)C(F)(F)F (centres undefined) | – | inconclusive: 9.58% |
| COC(=O)c1cc(S(=O)(=O)NCC2CCN(CCc3ccc(OC)cc3)CC2)cn1C | inconclusive: 0.0046 µM [falling, full curve] | – |
| Cc1cc(NC(=O)CSc2nc3[nH]c(=O)cc(O)c3s2)ccc1Br | inconclusive: 6.51 µM [activator, single point] | – |
| Fc1ccccc1Cc1noc(CN2CCCC(CN3CCOCC3)C2)n1 (centres undefined) | – | inconclusive: 7.72% |
| CC(=O)[C@@H]1[C@@H](C(=O)c2ccc(C)cc2)[C@]2(C(=O)Nc3ccccc32)[C@H]2C=Cc3cc(F)ccc3N12 | inconclusive: 29.1 µM [falling, single point] | – |
| COc1ccc(-n2nc3c(N4CCCC(C(=O)NCc5ccccc5C)C4)nnc(C)c3c2C)cc1 (centres undefined) | inconclusive: 3.26 µM [falling, full curve, poor fit] | – |
| N#CC1(NC(=O)COC(=O)c2cc(=O)[nH]c3ccccc23)CCCCC1 | – | inconclusive |
| CCCC(=O)Nc1nnc(SCC(=O)Nc2ccc3c(c2)OCCO3)s1 | – | inconclusive: -13% |
| O=C(Nc1ccc(OC(F)F)cc1)c1cc(S(=O)(=O)N2CCCCC2)ccc1N1CCOCC1 | inconclusive: 6.51 µM [activator, single point] | – |
| COc1ccc(CCNC(=O)c2[nH]c(C)c(C(C)=O)c2C)cc1 | inconclusive: 3.66 µM [activator, full curve] | – |
| COc1ccc(S(=O)(=O)NCc2ccco2)cc1C(=O)N1CCOCC1 | – | inconclusive: 2.89% |

In the list so far, 5 have a furan ring, fused or not.

| Structure (SMILES) | Potency | lipid storage change, negative = inhibition |
| --- | --- | --- |
| CCOc1ccc(OCc2ccc(C(=O)N3N=C(C(F)F)CC3(O)C(F)F)o2)cc1 (centres undefined) | – | inconclusive: 99.4% |
| O=C(c1ccco1)N1CCN(S(=O)(=O)c2cccc([N+](=O)[O-])c2)CC1 | – | inactive |
| Cc1ccc(OCC(=O)Nc2ccc(NC(=O)c3ccco3)cc2)c(C)c1 | – | inconclusive: -7.22% |
| COc1cc2[nH]c(=S)n(Cc3ccco3)c(=O)c2cc1OC | inconclusive: 0.0651 µM [activator, full curve, poor fit] | – |
| COc1ccc(S(=O)(=O)NCc2ccco2)cc1C(=O)N1CCOCC1 | – | inconclusive: 2.89% |
